Experimental data published in the supplement of paper PMC11006884.
The entries are a selection whose mix differs from that of the whole data set.

Amino acid sequences for entries named in this document (tags omitted). A change or cut given only in a name is not applied to a line headed by its entry.
UniProt Q5VT52: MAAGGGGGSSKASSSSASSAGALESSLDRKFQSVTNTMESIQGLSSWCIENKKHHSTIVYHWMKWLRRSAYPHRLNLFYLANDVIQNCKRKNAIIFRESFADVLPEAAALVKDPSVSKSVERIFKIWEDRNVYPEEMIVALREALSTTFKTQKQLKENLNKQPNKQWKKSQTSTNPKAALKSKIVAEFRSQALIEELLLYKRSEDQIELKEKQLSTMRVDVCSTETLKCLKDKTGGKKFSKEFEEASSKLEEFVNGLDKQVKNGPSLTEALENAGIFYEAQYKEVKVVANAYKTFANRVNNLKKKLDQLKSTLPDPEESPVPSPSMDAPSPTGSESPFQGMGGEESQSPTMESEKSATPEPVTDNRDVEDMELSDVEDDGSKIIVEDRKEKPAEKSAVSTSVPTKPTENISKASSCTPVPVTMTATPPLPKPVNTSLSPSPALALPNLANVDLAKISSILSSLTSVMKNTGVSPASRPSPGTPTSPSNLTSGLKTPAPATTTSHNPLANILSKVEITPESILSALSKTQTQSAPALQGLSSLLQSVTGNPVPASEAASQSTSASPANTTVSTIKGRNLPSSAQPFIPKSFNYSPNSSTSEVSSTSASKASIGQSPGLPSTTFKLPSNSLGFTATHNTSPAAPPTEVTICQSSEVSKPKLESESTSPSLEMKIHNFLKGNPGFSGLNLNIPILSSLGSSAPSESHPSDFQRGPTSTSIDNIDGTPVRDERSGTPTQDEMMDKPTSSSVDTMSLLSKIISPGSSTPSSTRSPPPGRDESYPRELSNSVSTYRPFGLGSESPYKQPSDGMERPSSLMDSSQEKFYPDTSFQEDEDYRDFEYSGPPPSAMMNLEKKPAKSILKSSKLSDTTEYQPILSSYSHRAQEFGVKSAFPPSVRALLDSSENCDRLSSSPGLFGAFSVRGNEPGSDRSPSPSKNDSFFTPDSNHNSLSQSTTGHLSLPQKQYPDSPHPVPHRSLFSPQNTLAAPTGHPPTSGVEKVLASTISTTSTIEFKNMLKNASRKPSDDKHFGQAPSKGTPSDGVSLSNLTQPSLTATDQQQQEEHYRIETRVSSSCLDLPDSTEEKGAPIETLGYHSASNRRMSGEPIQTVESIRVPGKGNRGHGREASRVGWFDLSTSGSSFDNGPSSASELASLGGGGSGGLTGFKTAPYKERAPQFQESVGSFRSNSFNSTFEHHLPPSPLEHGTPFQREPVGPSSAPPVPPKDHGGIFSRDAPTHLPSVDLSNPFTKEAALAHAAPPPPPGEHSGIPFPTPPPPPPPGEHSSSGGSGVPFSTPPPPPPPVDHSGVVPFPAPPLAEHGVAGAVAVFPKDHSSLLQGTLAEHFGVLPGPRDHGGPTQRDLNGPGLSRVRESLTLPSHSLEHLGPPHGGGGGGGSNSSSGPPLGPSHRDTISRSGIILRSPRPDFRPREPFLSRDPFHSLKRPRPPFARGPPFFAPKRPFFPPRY
UniProt Q69YN2: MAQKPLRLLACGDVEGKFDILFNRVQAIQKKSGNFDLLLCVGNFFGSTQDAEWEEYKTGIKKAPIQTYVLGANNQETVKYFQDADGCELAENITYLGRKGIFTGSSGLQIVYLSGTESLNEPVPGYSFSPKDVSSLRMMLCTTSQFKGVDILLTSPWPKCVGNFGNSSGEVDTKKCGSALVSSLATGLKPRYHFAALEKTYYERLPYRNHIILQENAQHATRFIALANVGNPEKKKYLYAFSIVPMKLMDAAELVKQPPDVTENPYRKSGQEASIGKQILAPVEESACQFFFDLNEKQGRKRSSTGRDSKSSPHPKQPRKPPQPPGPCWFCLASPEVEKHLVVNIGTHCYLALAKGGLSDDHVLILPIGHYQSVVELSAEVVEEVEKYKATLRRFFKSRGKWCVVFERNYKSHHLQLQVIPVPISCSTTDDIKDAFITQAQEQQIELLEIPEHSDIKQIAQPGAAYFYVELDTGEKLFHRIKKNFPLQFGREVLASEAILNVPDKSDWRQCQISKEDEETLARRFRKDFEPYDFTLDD
UniProt Q6NUN9: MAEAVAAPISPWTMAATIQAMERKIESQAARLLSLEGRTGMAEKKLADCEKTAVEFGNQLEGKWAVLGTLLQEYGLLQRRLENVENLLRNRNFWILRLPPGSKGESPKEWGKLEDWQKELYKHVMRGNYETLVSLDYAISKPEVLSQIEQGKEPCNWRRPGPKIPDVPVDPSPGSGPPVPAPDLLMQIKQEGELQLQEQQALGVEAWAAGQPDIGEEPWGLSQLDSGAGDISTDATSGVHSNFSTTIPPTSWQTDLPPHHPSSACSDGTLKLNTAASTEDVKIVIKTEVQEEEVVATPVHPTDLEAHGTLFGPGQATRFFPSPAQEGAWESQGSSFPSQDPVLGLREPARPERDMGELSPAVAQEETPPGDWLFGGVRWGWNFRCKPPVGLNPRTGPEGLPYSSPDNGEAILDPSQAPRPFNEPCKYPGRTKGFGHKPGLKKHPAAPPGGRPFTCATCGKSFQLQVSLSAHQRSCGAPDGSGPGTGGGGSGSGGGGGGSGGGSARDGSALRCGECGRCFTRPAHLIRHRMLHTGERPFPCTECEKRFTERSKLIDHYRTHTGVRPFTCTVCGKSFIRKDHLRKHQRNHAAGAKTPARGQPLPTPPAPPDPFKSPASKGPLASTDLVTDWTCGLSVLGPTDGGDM
UniProt Q6P4I2: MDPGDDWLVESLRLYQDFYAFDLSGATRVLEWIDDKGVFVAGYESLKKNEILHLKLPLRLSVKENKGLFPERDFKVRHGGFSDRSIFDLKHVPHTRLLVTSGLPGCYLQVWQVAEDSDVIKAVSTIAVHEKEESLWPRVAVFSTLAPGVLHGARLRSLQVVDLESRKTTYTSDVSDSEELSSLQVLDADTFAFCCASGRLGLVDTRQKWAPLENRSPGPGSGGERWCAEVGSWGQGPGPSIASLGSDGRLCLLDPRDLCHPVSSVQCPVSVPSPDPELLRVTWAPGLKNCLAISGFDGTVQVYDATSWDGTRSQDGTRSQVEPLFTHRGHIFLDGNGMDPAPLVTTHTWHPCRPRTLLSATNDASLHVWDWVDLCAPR
UniProt Q6NXT1: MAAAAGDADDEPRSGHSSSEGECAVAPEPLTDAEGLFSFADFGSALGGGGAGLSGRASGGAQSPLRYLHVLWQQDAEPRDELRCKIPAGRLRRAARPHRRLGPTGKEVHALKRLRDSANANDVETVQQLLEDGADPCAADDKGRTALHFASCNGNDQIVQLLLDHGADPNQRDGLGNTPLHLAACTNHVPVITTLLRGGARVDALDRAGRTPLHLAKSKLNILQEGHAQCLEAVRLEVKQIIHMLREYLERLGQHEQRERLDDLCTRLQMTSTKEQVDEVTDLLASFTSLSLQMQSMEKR
UniProt Q5W5X9: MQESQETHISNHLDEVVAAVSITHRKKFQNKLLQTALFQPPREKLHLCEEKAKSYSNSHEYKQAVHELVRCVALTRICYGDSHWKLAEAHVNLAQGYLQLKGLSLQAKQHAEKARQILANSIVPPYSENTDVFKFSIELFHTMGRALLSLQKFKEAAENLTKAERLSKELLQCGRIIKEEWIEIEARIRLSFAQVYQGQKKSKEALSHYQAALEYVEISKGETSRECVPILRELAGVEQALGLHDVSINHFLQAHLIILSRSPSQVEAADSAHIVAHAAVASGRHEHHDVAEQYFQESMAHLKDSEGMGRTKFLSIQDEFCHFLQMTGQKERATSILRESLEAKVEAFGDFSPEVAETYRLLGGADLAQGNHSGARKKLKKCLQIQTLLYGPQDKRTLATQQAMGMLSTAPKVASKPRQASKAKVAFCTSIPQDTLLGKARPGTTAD
UniProt Q5VV42: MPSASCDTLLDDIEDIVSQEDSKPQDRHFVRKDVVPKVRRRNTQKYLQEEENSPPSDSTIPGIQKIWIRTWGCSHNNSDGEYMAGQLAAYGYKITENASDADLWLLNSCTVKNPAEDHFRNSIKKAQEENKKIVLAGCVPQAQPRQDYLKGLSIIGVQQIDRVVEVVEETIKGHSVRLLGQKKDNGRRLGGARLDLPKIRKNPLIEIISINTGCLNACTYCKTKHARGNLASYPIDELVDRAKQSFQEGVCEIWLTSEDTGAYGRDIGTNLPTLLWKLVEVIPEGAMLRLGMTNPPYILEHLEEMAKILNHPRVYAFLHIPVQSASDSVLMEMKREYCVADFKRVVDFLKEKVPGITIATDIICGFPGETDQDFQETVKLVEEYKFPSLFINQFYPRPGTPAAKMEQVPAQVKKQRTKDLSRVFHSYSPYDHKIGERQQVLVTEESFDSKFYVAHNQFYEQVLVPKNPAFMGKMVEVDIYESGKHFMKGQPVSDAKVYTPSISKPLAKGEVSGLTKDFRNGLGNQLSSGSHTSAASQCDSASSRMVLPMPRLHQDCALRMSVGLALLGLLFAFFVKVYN
UniProt Q6FI81: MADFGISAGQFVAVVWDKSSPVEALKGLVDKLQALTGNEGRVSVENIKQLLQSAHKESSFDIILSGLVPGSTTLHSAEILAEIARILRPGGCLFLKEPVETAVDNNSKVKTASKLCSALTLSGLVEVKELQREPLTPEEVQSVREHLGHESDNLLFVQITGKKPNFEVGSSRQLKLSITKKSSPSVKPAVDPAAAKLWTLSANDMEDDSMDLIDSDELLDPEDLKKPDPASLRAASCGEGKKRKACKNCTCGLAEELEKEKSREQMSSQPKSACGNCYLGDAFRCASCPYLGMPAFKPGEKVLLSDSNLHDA
UniProt Q6IBS0: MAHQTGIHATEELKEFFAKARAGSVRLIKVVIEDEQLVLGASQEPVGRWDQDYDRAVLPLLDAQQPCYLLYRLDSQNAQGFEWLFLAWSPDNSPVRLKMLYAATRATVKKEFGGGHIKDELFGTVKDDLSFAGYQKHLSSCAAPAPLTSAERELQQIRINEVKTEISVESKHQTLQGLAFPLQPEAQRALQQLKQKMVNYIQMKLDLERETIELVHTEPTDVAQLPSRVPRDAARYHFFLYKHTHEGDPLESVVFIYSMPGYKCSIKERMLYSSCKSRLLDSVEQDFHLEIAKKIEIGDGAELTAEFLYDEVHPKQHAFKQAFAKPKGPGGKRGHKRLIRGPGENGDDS
UniProt Q5VZL5: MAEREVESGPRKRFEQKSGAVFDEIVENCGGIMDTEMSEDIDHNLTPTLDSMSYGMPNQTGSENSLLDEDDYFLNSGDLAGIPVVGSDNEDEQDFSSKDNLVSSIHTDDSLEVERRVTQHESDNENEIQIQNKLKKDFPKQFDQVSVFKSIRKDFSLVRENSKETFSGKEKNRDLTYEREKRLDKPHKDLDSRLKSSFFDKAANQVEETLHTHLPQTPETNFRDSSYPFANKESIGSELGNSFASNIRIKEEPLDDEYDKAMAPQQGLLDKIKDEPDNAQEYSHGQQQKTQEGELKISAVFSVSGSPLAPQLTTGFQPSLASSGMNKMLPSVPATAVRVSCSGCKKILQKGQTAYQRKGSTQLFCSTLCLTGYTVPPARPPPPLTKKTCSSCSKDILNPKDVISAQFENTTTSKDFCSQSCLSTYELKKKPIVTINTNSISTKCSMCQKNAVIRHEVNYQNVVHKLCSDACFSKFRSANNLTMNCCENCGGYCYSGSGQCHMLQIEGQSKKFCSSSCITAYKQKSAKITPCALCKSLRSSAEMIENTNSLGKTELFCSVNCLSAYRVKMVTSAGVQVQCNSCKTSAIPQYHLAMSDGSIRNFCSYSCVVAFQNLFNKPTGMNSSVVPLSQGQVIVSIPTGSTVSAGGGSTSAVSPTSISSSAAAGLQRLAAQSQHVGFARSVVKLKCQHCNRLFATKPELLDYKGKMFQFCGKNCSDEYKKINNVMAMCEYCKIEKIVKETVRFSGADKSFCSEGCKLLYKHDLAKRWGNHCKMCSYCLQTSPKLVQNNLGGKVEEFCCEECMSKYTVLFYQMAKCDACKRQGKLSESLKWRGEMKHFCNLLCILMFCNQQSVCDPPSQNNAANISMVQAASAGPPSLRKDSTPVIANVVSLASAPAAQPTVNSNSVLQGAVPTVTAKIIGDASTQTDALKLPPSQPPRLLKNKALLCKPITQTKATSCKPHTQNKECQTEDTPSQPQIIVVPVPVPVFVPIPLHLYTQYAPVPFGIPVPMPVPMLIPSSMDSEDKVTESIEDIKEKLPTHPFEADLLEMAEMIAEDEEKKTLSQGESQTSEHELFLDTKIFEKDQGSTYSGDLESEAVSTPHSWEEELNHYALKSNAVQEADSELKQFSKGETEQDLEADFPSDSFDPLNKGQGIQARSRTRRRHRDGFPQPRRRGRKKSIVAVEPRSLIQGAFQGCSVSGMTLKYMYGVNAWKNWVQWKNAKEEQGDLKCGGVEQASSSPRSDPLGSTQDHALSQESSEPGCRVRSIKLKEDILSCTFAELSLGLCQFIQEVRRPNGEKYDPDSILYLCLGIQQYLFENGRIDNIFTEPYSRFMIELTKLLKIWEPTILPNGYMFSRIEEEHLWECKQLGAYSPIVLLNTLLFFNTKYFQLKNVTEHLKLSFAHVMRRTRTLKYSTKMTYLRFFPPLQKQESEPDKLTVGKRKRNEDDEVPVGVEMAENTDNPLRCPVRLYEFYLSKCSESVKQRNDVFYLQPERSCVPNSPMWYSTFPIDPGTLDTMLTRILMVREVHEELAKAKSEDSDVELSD

Compound: COC(=O)C#Cc1ccccc1 [methyl 3-phenylpropiolate]
Assay: log2 ratio of iodoacetamide-alkyne labeling of the cysteine site, DMSO over compound (competition); higher = stronger covalent engagement of the cysteine by the compound, active = 1 or more
Conditions: 500 µM; treatment time 1 h; system: HEK293T cell lysate
Method in brief: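 HEK293T lysate (2 mg/mL) was treated with DMSO or electrophile (500 µM, 1 h, ambient temperature), then iodoacetamide alkyne (1 h), clicked to sCIP-TMT reagents, pooled, trypsin-digested overnight at 37 °C, streptavidin-enriched and acid-eluted. Peptides were run on Orbitrap Eclipse LC-MS/MS with FAIMS and quantified in FragPipe. The log2 competition ratio per cysteine is mean control-channel over mean compound-channel reporter intensity. Duplicate channels and three replicates were used, and cysteines quantified in only one replicate were excluded.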

| Target | log2 ratio of iodoacetamide-alkyne labeling |
| --- | --- |
| INTS5 C514 (UniProt Q6P9B9) | inactive: 0.389 |
| RPRD2 C88 (UniProt Q5VT52) | inactive: 0.209 |
| NCAPH2 C309 (UniProt Q6IBW4) | inactive: 0.352 |
| CWF19L1 C176 (UniProt Q69YN2) | inactive: -0.136 |
| BCORL1 C617 (UniProt Q5H9F3) | inactive: 0.399 |
| UniProt Q6P1J9_C397 | inactive: 0.0744 |
| UniProt Q5JSZ5_C525 | inactive: 0.706 |
| ATAD2 C1246 (UniProt Q6PL18) | inactive: 0.525 |
| NUP188 C9 (UniProt Q5SRE5) | inactive: 0.746 |
| CEP170 C212 (UniProt Q5SW79) | inactive: 0.521 |
| MAP1S C342 (UniProt Q66K74) | inactive: 0.18 |
| UniProt Q5THK1_C92 | inactive: 0.559 |
| ZNF746 C425 (UniProt Q6NUN9) | inactive: 0.385 |
| WDR73 C106 (UniProt Q6P4I2) | inactive: 0.112 |
| UniProt Q5VSL9_C418 | active: 1.22 |
| THOC7 C38 (UniProt Q6I9Y2) | inactive: 0.0555 |
| ANKRD54 C137 (UniProt Q6NXT1) | inactive: 0.138 |
| WDR73 C259 (UniProt Q6P4I2) | inactive: 0.0163 |
| ATAD3B C616 (UniProt Q5T9A4) | inactive: 0.463 |

Laid out differently: entries from further up
Target	log2 ratio of iodoacetamide-alkyne labeling
NUP188 C9 (UniProt Q5SRE5)	inactive: 0.746
CEP170 C212 (UniProt Q5SW79)	inactive: 0.521
MAP1S C342 (UniProt Q66K74)	inactive: 0.18
UniProt Q5THK1_C92	inactive: 0.559
ZNF746 C425 (UniProt Q6NUN9)	inactive: 0.385
WDR73 C106 (UniProt Q6P4I2)	inactive: 0.112
UniProt Q5VSL9_C418	active: 1.22
THOC7 C38 (UniProt Q6I9Y2)	inactive: 0.0555
ANKRD54 C137 (UniProt Q6NXT1)	inactive: 0.138
WDR73 C259 (UniProt Q6P4I2)	inactive: 0.0163

Continued.

| Target | log2 ratio of iodoacetamide-alkyne labeling |
| --- | --- |
| LYRM7 C97 (UniProt Q5U5X0) | inactive: 0.176 |
| RICTOR C1012 (UniProt Q6R327) | inactive: 0.373 |
| ZNF326 C12 (UniProt Q5BKZ1) | inactive: 0.582 |
| UniProt Q5W5X9_C428 | inactive: 0.549 |
| CDKAL1 C538 (UniProt Q5VV42) | inactive: 0.579 |
| C8orf82 C98 (UniProt Q6P1X6) | inactive: 0.25 |
| NCAPH2 C342 (UniProt Q6IBW4) | active: 1.07 |
| TBCEL C121 (UniProt Q5QJ74) | inactive: 0.0663 |
| CIAPIN1 C237 (UniProt Q6FI81) | inactive: 0.938 |
| UniProt Q5FBB7_C44 | inactive: 0.306 |
| UniProt Q6PJG6_C539 | inactive: 0.0776 |
| TWF2 C141 (UniProt Q6IBS0) | inactive: 0.0464 |
| YOD1 C97 (UniProt Q5VVQ6) | inactive: 0.146 |
| ARMC6 C297 (UniProt Q6NXE6) | inactive: 0.0207 |
| ZMYM4 C1499 (UniProt Q5VZL5) | inactive: 0.221 |
| PRPF8 C435 (UniProt Q6P2Q9) | active: 1.24 |
| EDC4 C1130 (UniProt Q6P2E9) | inactive: 0.00439 |
| HEATR6 C360 (UniProt Q6AI08) | inactive: 0.657 |
| UniProt Q5T440_C170 | inactive: 0.789 |
